Experimental data from PubChem BioAssay AID493014 (National Center for Advancing Translational Sciences (NCATS), 2011).
Among all 340,000 compounds or so, about 170 (0.05%) were called active. This list was built around the results that the source calls inconclusive (neither active nor inactive); the mix of calls is not that of the screen. Calls follow the shape of the dose curve; as a rule, active = well fitted inhibition curve with a large enough effect in the signal ratio, with a control signal flat (not every such curve was filed as active); inconclusive = small, poorly fitted or top-dose-only effect, or effect the other way, or a change in a side signal; inactive = flat fitted curve, though single readings scatter; the % refers to the signal ratio. Potencies beside an inconclusive call are fits to weak or partial responses and may not hold up.

Experiment: qHTS Assay to Find Inhibitors of Chronic Active B-Cell Receptor Signaling;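 as to activity change, negative = inhibition: plate controls were basal doxycycline-induced cells for no effect and cells given 10 µM MG132 for full effect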
Settings: ABC-DLBCL IkBa-CBG/CBR reporter, luminescence ratio (green luciferase fused to IkBa over red control in TMD8 lymphoma cells), 4 h; activity change, negative = inhibition: at 46.1 µM (top of the series)
Outline: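 TMD8 human ABC-DLBCL cells with doxycycline-inducible IκBα–green luciferase fusion and unfused red luciferase, in 0.5% FBS medium; compounds up to 46 uM, 4 h at 37C. Green/red luminescence ratio, filter-overlap corrected, fitted to concentration-response curves.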
Potency is read from the fitted curve at half-maximal effect.

| SMILES | activity change, negative = inhibition | Potency |
| --- | --- | --- |
| CN1CCN(C(=O)C2=C[C@H](c3csc4ccccc34)C[C@H](OCCCCO)O2)CC1 | inconclusive: -1.72% | – |
| CCCCN(CCCNC(=O)C1CCN(S(=O)(=O)N2CCOCC2)CC1)c1ccccc1 | inconclusive: -1.16% | – |
| Cc1c(OC(C)C(=O)NCCN2CCOCC2)ccc2c3c(c(=O)oc12)CCCC3 (stereo not drawn) | inconclusive: 11.5% | – |
| CCc1ccc(CN(C)Cc2nc(-c3cccc(Cl)c3)no2)nc1 | inconclusive: 4.45% | – |
| COc1ccccc1COC(=O)c1ccc(S(=O)(=O)N2CCOCC2)cc1 | inactive: -0.853% | – |
| COc1ccc2oc(C(=O)OCC(=O)N(Cc3ccccc3)C(C)C)c(C)c2c1 | – | inconclusive: 10.3 µM [rising, partial curve, poor fit] |
| COc1ccc2c(c1)CCc1c-2n[nH]c1C(=O)NCCC(C)C | inconclusive: -9.95% | – |
| CCOC(=O)c1cccc(Nc2nc(-c3cccnc3)nc3ccccc23)c1 | inconclusive: 6.04% | – |
| C=CCOc1ccccc1C(=O)/C=C1/C(=O)Nc2ccccc21 | inconclusive: 10.5% | – |
| Cc1noc(C)c1COc1ccccc1C(=O)NC1CCC(C)CC1 (stereo not drawn) | inconclusive: 2.73% | – |
| Cc1ccccc1C(=O)Nc1cccc(NC(=O)c2ccc(F)cc2)c1 | inconclusive: -13.3% | – |
| CCCC(=O)NC(c1ccco1)c1c(O)ccc2ccccc12 (stereo not drawn) | inactive: -15.9% | – |
| Cc1cc(C)nc(NC(=O)c2ccc(Cl)cc2Cl)n1 | – | inconclusive: 11.2 µM [rising, partial curve, poor fit] |
| Cc1cc(=O)oc(C)c1C(=O)OCC(=O)c1ccc(Cl)c(Cl)c1 | inconclusive: 11% | – |
| COc1ccc([N+](=O)[O-])cc1/C=N/NC(=O)Cc1ccccc1 | inconclusive: -0.525% | – |
| COc1ccc(C2CC(c3ccccc3O)=NN2C(=O)c2ccccc2)cc1OC (stereo not drawn) | inconclusive: -3.4% | – |
| COc1ccc(-c2ccc(/C=C3/C(=N)N4C(C)=CSC4=NC3=O)o2)c([N+](=O)[O-])c1 | inconclusive: 0.365% | – |
| O=C(Nc1nsc(-c2ccccc2)n1)c1cccs1 | inconclusive: 148% | – |
| O=C(c1cccs1)[C@@H]1[C@@H]2C(=O)N(Cc3ccc4c(c3)OCO4)C(=O)[C@@H]2C2c3ccccc3C=CN21 (stereo partly drawn) | – | inconclusive: 22.4 µM [falling, partial curve, poor fit] |
| CCn1nnc2sc3c(c2c1=O)CCC(C)C3 (stereo not drawn) | inconclusive: -3.06% | – |
| CSc1ccc(CNc2ccc(C)cc2)cc1 | inconclusive: 15.7% | – |
| CCOc1ccc(C2C(C(=O)OC)=CN(C(C)c3ccccc3)C=C2C(=O)OC)cc1 (stereo not drawn) | inactive: 1.39% | – |
| Cc1ccc(NC(=O)C2C(=O)N(C)c3ccccc32)cc1 (stereo not drawn) | – | inconclusive: 29.1 µM [falling, single point] |
| COc1cc(Cl)cc(C(=O)O)c1OCC(=O)O | inconclusive: 7.78% | – |
| Cc1nc(Nc2ccc(Cl)cc2)c(C#N)c(=O)[nH]1 | inconclusive: -14.6% | – |
| O=C1SCCc2c1n(Cc1ccccc1)c1ccccc21 | inconclusive: 11.3% | – |
| CN1/C(=C\C(=O)C[n+]2ccc(C(=O)c3ccccc3)cc2)C(C)(C)c2ccccc21 | inactive: 5.51% | – |

| SMILES | activity change, negative = inhibition | Potency |
| --- | --- | --- |
| Brc1cccc(OCCn2ccnc2)c1 | inactive: -9.88% | – |
| C(=N\Nc1nc(N2CCCC2)nc(N2CCCC2)n1)/c1ccncc1 | inconclusive: 0.313% | – |
| Cc1ccccc1NC(=O)C(=O)c1cn(C)c2ccccc12 | – | inconclusive: 17.8 µM [falling, partial curve, poor fit] |
| CN1CCN(c2ccccc2NC(=O)c2cc3c(s2)-c2ccccc2OC3)CC1 | – | inconclusive: 15.8 µM [falling, single point] |
| N#C/C(=C/N1CCOCC1)c1ccccc1 | – | inconclusive: 25.1 µM [falling, single point] |
| O=C(Nc1cccc(F)c1)NC1CCCCC1 | – | inconclusive: 20.6 µM [falling, single point] |
| COc1ccc(C(=O)CCS(=O)(=O)c2ccc(C)cc2)cc1OC | – | inconclusive: 28.2 µM [falling, single point] |
| O=C(CCl)Nc1ccccc1Sc1ccccc1 | – | inconclusive: 18.4 µM [falling, partial curve] |
| CCCC1=C/C(=C/c2ccc(-c3ccccc3OC)o2)C(=O)O1 | inactive: 0.858% | – |
| Cc1ccc(NC(NC(=O)c2cccs2)C(Cl)(Cl)Cl)cc1C (stereo not drawn) | inconclusive: 15.3% | – |
| Cc1cc2cc(CNC(=S)Nc3ccc(OC(F)F)cc3)ccc2[nH]1 | – | inconclusive: 23.1 µM [cytotoxic, single point] |
| Cc1ccc(NC(=O)CSc2n[nH]c(N)n2)cc1S(=O)(=O)N1CCOCC1 | inactive: -15.6% | – |
| Cc1ccc2cccc(OCc3ccccc3)c2n1 | inconclusive: -7.71% | – |
| CC1(C)CC(=O)C2=C(C1)OC(N)=C(C#N)C2c1ccsc1 (stereo not drawn) | inconclusive: 5.65% | – |
| Cc1ccc(NC(=S)c2nc3ccccc3s2)cc1 | – | inconclusive: 3.98 µM [falling, full curve, poor fit] |
| Cc1ccccc1NC(=O)CCN1CCN(C)CC1 | inactive: 3.65% | – |
| C[C@H](CO)N1C[C@H](C)[C@@H](CN(C)Cc2ccc3c(c2)OCO3)Oc2c(NC(=O)Cc3ccccc3)cccc2C1=O | inconclusive: -0.523% | – |
| O=C(Nc1ccc(F)cc1)c1cccnn1 | inactive: 1.26% | – |
| COC(=O)C(C)Oc1ccc2c(c1)O/C(=C\c1cccc(Br)c1)C2=O (stereo not drawn) | inconclusive: 7.27% | – |
| COc1ccc(Cl)cc1NC(=O)COc1cccc2c(=O)n(C)ccc12 | inactive: 28.6% | – |
| O=C(NC12CC3CC(CC(C3)C1)C2)c1cnccn1 | inactive: 0.444% | – |
| O=C(NCCN1CCOCC1)c1c(O)nc2ccccn2c1=O | inconclusive: -7.17% | – |
| COc1ccc(-c2c(C#Cc3ccsc3)c3cc(-c4cccc5[nH]ccc45)ccc3n2C)cc1 | – | inconclusive: 29.1 µM [falling, single point] |
| COc1ccc(NCc2nnc(SCc3ccc(Cl)cc3)n2-c2ccccc2)cc1 | inconclusive: 0.217% | – |
| Cc1c(NC(=O)c2cc(C3CC3)on2)c(=O)n(-c2ccccc2)n1C | – | inconclusive: 2.31 µM [falling, full curve, poor fit] |
| Cc1ccc(S(=O)(=O)n2nccc2-c2c(-c3ccccc3)noc2C)cc1 | inactive: 17% | – |

Retrieved by structure from the list above (four):

| SMILES | activity change, negative = inhibition | Potency |
| --- | --- | --- |
| Cc1ccc(NC(=O)CSc2n[nH]c(N)n2)cc1S(=O)(=O)N1CCOCC1 | inactive: -15.6% | – |
| COc1ccc(-c2c(C#Cc3ccsc3)c3cc(-c4cccc5[nH]ccc45)ccc3n2C)cc1 | – | inconclusive: 29.1 µM [falling, single point] |
| O=C(NC12CC3CC(CC(C3)C1)C2)c1cnccn1 | inactive: 0.444% | – |
| O=C(Nc1ccc(F)cc1)c1cccnn1 | inactive: 1.26% | – |
